Measurements reported in publication PMC4245943.
No constants are given. Whether binding was seen depends on the method and setting. Binding seen in cells or lysates may run through a third protein. Some results given as binding are weak or reduced against the parent protein; the word gives no strength.

Amino acid sequences for entries named in this document (tags omitted). A change or cut given only in a name is not applied to a line headed by its entry.
UniProt Q8N163: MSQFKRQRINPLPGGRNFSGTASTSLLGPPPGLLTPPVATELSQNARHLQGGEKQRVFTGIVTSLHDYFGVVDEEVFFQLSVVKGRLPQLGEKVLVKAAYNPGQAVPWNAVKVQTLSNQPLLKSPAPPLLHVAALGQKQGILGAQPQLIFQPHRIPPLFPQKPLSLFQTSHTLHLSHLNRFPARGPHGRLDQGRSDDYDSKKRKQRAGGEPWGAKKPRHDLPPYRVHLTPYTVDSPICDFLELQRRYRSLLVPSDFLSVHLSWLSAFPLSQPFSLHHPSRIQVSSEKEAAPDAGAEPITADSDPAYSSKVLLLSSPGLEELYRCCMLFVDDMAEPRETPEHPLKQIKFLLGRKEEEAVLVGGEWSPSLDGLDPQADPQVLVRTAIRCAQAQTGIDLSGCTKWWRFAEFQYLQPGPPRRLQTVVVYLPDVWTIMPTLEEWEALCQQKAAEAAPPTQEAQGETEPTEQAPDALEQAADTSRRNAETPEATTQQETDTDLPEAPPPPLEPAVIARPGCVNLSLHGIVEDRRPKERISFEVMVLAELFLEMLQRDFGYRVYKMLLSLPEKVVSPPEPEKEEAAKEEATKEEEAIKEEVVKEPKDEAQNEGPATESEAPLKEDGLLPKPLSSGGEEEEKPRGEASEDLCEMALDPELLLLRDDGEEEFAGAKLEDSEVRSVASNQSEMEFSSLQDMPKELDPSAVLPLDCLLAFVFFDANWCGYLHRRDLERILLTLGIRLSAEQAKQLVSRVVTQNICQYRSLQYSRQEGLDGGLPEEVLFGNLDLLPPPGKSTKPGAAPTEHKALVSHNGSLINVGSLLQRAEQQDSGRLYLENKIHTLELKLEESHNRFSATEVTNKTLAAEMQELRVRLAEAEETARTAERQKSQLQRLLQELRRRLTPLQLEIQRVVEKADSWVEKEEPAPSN
UniProt Q96EB6: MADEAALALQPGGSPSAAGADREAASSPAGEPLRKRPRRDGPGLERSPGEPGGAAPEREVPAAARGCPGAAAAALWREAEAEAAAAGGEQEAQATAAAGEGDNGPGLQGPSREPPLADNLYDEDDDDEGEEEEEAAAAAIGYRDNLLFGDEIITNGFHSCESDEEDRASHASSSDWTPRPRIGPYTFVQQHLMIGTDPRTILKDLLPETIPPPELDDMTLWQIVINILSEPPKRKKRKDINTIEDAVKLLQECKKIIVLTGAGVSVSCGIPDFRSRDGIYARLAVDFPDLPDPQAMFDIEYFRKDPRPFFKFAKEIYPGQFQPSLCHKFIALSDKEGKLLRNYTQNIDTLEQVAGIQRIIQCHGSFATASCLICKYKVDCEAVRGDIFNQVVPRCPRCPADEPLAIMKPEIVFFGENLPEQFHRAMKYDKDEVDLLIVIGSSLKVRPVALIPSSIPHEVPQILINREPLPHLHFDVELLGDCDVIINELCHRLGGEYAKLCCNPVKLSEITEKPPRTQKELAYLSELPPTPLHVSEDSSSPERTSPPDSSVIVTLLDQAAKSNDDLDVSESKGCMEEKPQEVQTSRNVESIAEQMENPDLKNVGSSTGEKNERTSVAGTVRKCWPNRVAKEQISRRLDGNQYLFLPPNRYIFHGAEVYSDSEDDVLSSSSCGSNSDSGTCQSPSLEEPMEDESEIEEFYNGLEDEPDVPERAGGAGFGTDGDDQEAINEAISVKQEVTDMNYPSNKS
UniProt O96017: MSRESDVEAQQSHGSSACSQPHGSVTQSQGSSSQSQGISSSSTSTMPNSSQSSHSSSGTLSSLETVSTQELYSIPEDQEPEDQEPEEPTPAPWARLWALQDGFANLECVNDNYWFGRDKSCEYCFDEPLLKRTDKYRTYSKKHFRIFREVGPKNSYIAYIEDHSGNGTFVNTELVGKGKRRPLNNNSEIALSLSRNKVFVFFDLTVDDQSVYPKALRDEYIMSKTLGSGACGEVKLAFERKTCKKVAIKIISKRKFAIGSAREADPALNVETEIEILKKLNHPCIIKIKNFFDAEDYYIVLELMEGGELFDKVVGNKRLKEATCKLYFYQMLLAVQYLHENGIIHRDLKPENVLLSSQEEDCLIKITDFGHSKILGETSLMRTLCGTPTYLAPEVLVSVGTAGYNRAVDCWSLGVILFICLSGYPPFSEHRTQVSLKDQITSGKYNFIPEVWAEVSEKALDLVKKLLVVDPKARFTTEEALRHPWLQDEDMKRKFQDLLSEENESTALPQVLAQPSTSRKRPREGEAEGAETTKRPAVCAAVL

How the values were obtained:
[1] = molecular target: DBC1 (Deleted in Breast Cancer 1), endogenous (human (endogenous in U2OS)) (UniProt Q8N163); assay: co-IP; endogenous proteins immunoprecipitated with specific antibodies from lysates in ELB buffer (150 mM NaCl, 50 mM Hepes pH 7.5, 5 mM EDTA, 0.5% NP40) of U2OS cells (SIRT1 IP for Chk2 also from two other cell lines); cells untreated or treated with etoposide or neocarzinostatin, VRX0466617, or siRNA against Chk2, DBC1, SIRT1 or REGγ; western blot
[2] = molecular target: SIRT1, endogenous (human (endogenous in U2OS)) (UniProt Q96EB6); assay: as above

“Chk2 checkpoint kinase, endogenous (from UniProt O96017 1-543) (enzyme)” was tested. Which binding [1] did it give?
Its binding is “binds”.

And the binding [2]?
The binding was “binds”.
